Results published in patent US20160039934A1 (AFFIRMED, published 2016).
No constants are given. Whether binding was seen depends on the method and setting. Some binding calls cover weakened binding; strength is not graded here.

By UniProt entry, the sequences of proteins in these tests, tags left out. Residues count along the entry.
UniProt Q95LI5, residues 22-198: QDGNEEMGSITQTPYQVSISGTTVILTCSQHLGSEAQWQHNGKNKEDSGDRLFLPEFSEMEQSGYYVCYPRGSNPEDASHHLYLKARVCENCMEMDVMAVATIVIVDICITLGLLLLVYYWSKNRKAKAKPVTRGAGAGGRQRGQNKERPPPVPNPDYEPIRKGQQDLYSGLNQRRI
UniProt P07766, residues 23-207: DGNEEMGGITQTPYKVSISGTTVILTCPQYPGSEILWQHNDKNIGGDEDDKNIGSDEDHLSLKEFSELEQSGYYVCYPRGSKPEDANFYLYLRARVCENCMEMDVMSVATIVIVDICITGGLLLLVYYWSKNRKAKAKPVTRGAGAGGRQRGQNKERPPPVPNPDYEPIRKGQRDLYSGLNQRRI

Experiments:
cynomolgus CD3 [1] = target: T1, cynomolgus CD3 (cynomolgus, UniProt Q95LI5 22-198); test: flow cytometry on HSC-F cells
T1 construct: whole, on cells; CD3 is a multi-chain complex; also called CD3 on cynomolgus CD3+ HSC-F cells; cynomolgus CD3-expressing cell line (HSC-F)

human CD3 = target: T2, human CD3 (human, UniProt P07766 23-207); test: flow cytometry on Jurkat cells
T2 construct: whole, on cells; CD3 is a multi-chain complex; also called CD3 on human CD3+ Jurkat cells; CD3+ human T cell line (Jurkat)

cynomolgus CD3 [2] = target: T1, cynomolgus CD3; test: summary of the flow cytometry results

Measured: binding

B1: TandAb E (var_z) (SEQ ID NO:12) (bispecific antibody)
chain: DIQMTQSPSSLSASVGDRVTITCRSSTGAVTTSNYANWVQQKPGKAPKGLIGGTNKRAPGVPSRFSGSLIGDKATLTISSLQPEDFATYYCALWYSNLWVFGQGTKVEIKGGSGGSEVQLVQSGAEVKKPGESLKISCKGSGYSFTSYWIGWVRQMPGKGLEWMGIIYPGDSDTRYSPSFQGQVTISADKSISTAYLQWSSLKASDTAMYYCARLGSSWTNDAFDIWGQGTMVTVSSGGSGGSSYELTQPPSVSVSPGQTARITCSGDALPKQYAYWYQQKPGQAPVLVIYKDSERPSGIPERFSGSSSGTTVTLTISGVQAEDEADYYCQSADSSGTPLIVFGTGTKLTVLGGSGGSEVQLVESGGGLVQPGGSLRLSCAASGFTFSTYAMNWVRQAPGKGLEWVGRIRSKYNNYATYYADSVKDRFTISRDDSKNSLYLQMNSLKTEDTAVYYCARHGNFGNSYVSHFAYWGQGTLVTVSSAAAGSHHHHHH
notes: Homodimeric tandem diabody; Detected by anti-His mAb
binds: all assays above
